In experiment [1] the target is PHPEP 190-pIX fusion on M13-9 phage (M13 phage). Description: phage ELISA, sEGFR-mimetibody coated on plate, bound phage detected with anti-M13/HRP.
For experiment [2], the target named is EGF-pIX fusion on M13-9 phage (M13 phage). Described as above.

One substance from US20110118144A1 can be followed below.

No constants are given. Whether binding was seen depends on the method and setting. Some entries that bind do so weakly or less than the wild type.

Turning to “soluble EGFR-mimetibody (from UniProt P00533 25-645) (Fc fusion)”, the binding entry in experiment [1] and in experiment [2] was “binds” throughout.
